From the supplement of paper PMC10849652 come the findings set out here.

Sequences of proteins named here, by UniProt entry; tags and fusion partners are left off. A change or cut given only in a name is not applied to a line headed by its entry.
UniProt Q96IX5: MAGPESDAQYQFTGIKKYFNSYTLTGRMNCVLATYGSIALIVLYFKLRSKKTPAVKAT
UniProt Q5T9A4: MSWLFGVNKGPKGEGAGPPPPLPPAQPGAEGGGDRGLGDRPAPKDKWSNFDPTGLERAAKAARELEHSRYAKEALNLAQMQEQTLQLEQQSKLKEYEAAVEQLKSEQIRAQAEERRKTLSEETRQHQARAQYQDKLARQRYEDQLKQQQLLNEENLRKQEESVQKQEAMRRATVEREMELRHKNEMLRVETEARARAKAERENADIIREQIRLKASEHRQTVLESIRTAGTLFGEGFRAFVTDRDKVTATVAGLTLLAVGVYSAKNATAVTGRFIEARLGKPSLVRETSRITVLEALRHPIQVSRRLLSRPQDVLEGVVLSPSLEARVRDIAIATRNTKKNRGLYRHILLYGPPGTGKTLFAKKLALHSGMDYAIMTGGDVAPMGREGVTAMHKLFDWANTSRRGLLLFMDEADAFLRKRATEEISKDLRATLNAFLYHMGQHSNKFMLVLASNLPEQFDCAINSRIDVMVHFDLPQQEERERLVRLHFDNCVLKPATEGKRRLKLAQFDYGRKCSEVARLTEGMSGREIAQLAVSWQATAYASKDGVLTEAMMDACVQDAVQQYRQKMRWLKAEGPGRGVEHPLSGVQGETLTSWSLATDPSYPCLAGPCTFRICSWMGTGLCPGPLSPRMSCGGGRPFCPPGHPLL
UniProt Q9NVP2, whole entry, looked up: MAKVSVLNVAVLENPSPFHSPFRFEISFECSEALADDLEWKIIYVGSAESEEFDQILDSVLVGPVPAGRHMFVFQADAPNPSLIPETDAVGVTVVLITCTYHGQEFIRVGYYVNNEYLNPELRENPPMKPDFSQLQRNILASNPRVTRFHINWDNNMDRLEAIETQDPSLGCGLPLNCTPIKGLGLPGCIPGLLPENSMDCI
UniProt P48047: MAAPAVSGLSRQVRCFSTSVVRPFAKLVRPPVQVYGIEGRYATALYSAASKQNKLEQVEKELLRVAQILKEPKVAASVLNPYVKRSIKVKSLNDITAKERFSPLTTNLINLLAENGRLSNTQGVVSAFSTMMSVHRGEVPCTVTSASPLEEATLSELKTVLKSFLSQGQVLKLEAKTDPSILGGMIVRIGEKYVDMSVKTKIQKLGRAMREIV
UniProt P54259: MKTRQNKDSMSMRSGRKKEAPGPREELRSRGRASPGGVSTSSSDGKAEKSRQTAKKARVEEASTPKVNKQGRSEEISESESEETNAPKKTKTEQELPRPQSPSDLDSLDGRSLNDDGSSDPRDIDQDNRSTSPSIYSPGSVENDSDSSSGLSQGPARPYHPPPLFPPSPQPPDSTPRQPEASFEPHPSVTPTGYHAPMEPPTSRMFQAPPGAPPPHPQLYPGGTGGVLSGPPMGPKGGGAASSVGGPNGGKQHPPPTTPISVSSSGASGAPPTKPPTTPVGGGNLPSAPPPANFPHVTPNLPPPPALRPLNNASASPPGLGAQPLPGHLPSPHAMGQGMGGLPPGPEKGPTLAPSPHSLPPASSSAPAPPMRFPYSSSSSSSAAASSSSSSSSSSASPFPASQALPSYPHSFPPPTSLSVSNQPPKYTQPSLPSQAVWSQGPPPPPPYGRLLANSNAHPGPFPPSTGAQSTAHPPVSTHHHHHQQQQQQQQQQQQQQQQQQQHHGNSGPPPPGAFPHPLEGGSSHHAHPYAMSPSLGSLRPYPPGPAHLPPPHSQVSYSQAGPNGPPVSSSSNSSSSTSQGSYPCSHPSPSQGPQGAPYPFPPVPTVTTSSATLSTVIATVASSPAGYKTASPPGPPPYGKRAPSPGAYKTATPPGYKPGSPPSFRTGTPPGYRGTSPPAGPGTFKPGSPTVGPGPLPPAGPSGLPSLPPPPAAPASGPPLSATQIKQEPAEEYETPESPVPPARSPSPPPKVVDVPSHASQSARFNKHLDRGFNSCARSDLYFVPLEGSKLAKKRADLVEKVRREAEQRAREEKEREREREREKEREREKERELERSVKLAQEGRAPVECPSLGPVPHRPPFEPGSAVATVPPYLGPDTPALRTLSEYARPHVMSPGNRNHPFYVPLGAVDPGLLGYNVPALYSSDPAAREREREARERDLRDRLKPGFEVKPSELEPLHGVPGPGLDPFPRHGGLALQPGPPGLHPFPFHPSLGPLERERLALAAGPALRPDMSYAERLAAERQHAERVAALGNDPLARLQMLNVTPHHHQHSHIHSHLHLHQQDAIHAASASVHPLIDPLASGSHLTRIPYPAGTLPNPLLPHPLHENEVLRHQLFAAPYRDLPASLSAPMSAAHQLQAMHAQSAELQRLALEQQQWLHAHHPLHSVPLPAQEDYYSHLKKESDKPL
UniProt O95352: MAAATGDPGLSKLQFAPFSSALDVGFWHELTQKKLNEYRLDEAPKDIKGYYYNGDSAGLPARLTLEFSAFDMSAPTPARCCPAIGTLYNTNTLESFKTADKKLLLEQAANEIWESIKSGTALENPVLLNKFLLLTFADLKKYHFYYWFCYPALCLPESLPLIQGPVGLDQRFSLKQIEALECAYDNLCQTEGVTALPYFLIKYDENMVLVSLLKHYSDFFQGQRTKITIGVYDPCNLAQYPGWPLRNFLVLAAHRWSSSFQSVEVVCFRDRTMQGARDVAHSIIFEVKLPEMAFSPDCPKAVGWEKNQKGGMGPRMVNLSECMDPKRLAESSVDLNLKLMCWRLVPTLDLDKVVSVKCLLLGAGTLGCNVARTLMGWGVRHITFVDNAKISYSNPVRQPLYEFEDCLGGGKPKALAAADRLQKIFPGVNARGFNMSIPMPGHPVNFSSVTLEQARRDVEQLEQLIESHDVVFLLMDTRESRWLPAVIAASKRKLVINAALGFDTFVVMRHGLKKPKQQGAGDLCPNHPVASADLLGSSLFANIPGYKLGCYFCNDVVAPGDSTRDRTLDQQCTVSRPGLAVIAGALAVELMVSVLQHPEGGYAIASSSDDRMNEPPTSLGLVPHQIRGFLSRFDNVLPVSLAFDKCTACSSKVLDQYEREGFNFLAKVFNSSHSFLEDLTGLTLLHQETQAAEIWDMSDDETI
UniProt P18859: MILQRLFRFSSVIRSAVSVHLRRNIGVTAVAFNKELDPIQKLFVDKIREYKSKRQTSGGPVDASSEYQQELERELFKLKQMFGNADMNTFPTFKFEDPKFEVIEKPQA
UniProt L0R819, whole entry, looked up: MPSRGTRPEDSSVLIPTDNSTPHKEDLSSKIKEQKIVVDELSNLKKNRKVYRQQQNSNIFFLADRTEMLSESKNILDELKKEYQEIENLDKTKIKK
UniProt Q96DT6: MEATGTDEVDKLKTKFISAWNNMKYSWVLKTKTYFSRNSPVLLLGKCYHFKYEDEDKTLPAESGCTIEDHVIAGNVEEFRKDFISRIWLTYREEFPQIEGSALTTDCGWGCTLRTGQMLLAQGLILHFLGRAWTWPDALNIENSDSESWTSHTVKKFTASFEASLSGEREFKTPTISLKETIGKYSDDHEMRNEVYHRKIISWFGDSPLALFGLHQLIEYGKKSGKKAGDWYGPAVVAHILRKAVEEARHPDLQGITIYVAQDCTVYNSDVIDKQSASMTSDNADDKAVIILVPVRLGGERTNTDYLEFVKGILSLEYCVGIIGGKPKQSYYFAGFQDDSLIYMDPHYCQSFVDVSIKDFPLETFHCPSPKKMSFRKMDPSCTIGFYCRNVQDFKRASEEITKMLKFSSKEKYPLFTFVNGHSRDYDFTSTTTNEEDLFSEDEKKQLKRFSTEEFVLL

Common to all, as to test: log2 fold change, soluble protein after heating vs DMSO (PISA); higher = thermal stabilisation; K562 lysate, 10 uM; active = over 0.2 and 3.5 SD of the protein, either way, in both replicates (recomputed)
Compound in assay [1]: NCC(=O)Nc1ccc(-n2nc(C(F)(F)F)cc2-c2ccc3c(ccc4ccccc43)c2)cc1
The gist of the method: (§1)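 K562 pellets were dounce-homogenised in PBS pH 7.4 with 1 mM MgCl2, and the crude extract at 1 mg/mL protein was treated with 10 μM compound for 30 min. Aliquots were heated for 3 min across 48°C-58°C, pooled, and brought to 0.5% NP-40 at 4°C; soluble protein was the supernatant after 21,000xg for 90 min. Soluble protein was quantified by TMTpro 16plex LC-MS/MS with channel sums equalised, and reported as log2 fold change in thermal stability against DMSO controls, with values from duplicates.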

Compound in assay [2]: O=C(CCCCCCC(=O)Nc1ccccc1)NO [vorinostat]
The gist of the method:
as §1

Compound in assay [3]: O=C(O)c1ccc2c(c1)nc(Nc1cccc(Cl)c1)c1ccncc12 [silmitasertib]
The procedure, abridged:
as §1

Compound in assay [4]: O=C1NC(=O)C(c2cnc3ccccn23)=C1c1cn2c3c(cc(F)cc13)CN(C(=O)N1CCCCC1)CC2
The gist of the method:
as §1

Compound in assay [5]: c1cn2cc(-c3ccc4cn[nH]c4c3)nc(Nc3ccc(N4CCOCC4)cc3)c2n1 [entospletinib]
The gist of the method: as §1

The list shows a part of the results.

For ATP5MD (UniProt Q96IX5), the log2 fold change was inactive: -0.164 in assay [1]; inactive: -0.103 in assay [2]; inactive: 0.098 in assay [3]; inactive: 0.069 in assay [4]; inactive: 0.06 in assay [5].

On to ATAD3B (UniProt Q5T9A4), for which the log2 fold change in assay [1] is inactive: -0.128; in assay [2], inactive: 0.132; in assay [3], inactive: 0.015; in assay [4], inactive: -0.057; in assay [5], inactive: 0.012.

For the target ASF1B (UniProt Q9NVP2), the log2 fold change was inactive: -0.046 in assay [1]; inactive: -0.03 in assay [2]; inactive: 0.047 in assay [3]; inactive: -0.011 in assay [4]; inactive: 0.036 in assay [5].

As for ATP5PO (UniProt P48047), the log2 fold change in assay [1] is inactive: 0.006; in assay [2], inactive: 0.151; in assay [3], inactive: 0.003; in assay [4] it was inactive: 0.001; in assay [5], inactive: 0.018.

ATN1 (UniProt P54259): the log2 fold change is inactive: 0.042 in assay [1]; inactive: 0.045 in assay [2]; inactive: -0.034 in assay [3]; inactive: 0.022 in assay [4]; inactive: -0.014 in assay [5].

As for ATG7 (UniProt O95352), the log2 fold change was inactive: 0.008 in assay [1]; active: -0.47 in assay [2]; inactive: 0.005 in assay [3]; inactive: -0.005 in assay [4]; inactive: 0.001 in assay [5].

Take ATP5PF isoform 2 (UniProt P18859): the log2 fold change is inactive: -0.002 in assay [1]; inactive: 0.206 in assay [2]; inactive: -0.116 in assay [3]; inactive: 0.053 in assay [4]; inactive: -0.003 in assay [5].

As to ASDURF (UniProt L0R819), the log2 fold change in assay [1] is inactive: 0.012; in assay [2] it was inactive: 0.07; in assay [3] it was inactive: 0.012; in assay [4] it was inactive: -0.023; in assay [5] it was inactive: 0.028.

On to ATG4C (UniProt Q96DT6), for which the log2 fold change in assay [1] was inactive: -0.017; in assay [2] it was inactive: 0.034; in assay [3], inactive: 0.047; in assay [4], inactive: -0.023; in assay [5] it was inactive: -0.042.
